The target in this test is Bromodomain-containing protein 9 (BRD9), wild type (human) (UniProt Q9H8M2). The test can be described thus: co-IP.

Chains of the proteins cited; added tags and fusions are not shown.
UniProt Q9H8M2: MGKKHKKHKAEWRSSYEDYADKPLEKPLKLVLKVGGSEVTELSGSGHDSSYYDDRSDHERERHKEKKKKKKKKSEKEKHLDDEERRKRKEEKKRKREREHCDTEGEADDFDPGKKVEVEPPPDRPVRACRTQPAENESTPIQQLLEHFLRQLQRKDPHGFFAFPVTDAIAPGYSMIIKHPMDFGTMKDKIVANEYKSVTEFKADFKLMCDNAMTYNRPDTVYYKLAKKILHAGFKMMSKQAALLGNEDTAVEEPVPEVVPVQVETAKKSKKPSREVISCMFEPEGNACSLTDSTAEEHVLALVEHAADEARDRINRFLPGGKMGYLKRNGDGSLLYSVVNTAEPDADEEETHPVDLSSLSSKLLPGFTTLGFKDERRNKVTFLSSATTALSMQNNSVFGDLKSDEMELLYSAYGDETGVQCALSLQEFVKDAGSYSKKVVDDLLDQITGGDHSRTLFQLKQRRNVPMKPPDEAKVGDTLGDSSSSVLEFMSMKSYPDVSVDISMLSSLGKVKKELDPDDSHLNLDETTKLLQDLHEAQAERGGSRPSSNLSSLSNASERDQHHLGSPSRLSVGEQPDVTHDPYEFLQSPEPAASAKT
UniProt Q9NZM4: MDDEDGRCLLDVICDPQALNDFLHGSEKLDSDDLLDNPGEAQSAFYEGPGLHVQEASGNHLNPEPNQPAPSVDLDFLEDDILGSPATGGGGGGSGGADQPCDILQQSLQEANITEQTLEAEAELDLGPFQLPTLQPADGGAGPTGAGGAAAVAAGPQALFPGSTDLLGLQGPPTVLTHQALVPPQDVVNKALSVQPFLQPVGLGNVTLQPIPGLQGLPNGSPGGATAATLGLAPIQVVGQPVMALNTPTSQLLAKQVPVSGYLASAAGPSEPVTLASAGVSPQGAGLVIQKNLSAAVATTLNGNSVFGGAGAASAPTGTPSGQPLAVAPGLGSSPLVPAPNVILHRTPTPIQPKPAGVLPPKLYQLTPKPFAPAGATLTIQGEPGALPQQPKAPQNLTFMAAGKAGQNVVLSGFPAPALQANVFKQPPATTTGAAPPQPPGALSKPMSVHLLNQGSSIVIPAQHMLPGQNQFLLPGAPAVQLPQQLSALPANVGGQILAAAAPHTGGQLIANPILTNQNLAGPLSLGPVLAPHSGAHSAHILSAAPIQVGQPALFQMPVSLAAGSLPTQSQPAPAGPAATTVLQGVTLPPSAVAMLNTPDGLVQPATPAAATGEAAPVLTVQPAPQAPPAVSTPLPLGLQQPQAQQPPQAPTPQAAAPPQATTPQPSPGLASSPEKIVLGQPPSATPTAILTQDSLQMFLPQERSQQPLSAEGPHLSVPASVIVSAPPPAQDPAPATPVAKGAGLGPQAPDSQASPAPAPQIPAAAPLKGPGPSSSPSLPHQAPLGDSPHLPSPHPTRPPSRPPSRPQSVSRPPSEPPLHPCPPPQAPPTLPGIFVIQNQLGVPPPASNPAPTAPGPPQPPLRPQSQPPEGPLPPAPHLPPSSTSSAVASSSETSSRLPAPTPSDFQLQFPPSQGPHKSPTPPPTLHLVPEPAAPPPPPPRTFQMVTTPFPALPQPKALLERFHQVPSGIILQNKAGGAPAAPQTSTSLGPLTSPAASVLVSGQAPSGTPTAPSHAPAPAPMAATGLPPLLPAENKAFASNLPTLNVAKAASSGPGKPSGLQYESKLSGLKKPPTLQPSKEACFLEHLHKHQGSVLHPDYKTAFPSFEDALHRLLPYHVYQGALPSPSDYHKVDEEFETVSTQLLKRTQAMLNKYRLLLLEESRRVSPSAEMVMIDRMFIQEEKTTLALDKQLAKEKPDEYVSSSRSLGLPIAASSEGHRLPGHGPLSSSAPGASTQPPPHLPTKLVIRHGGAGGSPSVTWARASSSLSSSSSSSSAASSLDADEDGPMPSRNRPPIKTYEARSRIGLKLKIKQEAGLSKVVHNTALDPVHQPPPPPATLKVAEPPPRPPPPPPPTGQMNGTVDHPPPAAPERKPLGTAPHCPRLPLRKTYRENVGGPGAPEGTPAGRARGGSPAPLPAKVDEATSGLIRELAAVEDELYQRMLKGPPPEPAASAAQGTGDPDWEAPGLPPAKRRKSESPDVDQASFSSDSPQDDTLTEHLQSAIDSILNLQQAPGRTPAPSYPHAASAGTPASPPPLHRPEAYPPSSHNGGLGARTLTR

The text below walks through data of paper PMC8490982.

These are yes or no findings as the source states them, for the method shown. In cells and extracts the contact can be indirect. Some entries that bind do so weakly or less than the wild type.

For GLTSCR1 (from UniProt Q9NZM4 1-1560), the binding entry is “binds”.
